# Reference: paper PMC9209732, “Transcriptional Regulation of ING5 and its Suppressive Effects on Gastric Cancer”
# The chains behind the UniProt entries cited, without tags or fusion partners.
# UniProt Q8WYH8: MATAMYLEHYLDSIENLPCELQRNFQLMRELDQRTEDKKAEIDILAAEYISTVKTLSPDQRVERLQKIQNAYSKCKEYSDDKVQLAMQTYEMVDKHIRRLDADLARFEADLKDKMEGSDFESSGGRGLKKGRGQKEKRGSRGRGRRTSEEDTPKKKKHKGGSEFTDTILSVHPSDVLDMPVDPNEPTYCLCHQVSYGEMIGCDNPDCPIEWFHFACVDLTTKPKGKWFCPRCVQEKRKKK
# UniProt P25490: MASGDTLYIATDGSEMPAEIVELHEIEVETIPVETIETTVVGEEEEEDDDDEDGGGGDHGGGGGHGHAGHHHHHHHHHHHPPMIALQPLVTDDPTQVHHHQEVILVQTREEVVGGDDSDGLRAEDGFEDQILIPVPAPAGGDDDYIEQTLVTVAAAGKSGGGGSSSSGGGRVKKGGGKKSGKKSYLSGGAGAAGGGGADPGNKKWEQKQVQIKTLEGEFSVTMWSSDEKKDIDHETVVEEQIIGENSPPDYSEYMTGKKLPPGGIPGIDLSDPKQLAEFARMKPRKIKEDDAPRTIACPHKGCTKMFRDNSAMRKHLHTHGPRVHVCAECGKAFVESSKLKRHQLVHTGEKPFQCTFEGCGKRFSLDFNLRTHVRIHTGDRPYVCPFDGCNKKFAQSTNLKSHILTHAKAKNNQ
# Results are given in words; binding and its absence hold for the method and conditions named. In cells and extracts the contact can be indirect. Some binding calls cover weakened binding; strength is not graded here.
# Target: T1, SRF (human (endogenous in AGS and SGC-7901)) (UniProt P11831)
# T1 sequence: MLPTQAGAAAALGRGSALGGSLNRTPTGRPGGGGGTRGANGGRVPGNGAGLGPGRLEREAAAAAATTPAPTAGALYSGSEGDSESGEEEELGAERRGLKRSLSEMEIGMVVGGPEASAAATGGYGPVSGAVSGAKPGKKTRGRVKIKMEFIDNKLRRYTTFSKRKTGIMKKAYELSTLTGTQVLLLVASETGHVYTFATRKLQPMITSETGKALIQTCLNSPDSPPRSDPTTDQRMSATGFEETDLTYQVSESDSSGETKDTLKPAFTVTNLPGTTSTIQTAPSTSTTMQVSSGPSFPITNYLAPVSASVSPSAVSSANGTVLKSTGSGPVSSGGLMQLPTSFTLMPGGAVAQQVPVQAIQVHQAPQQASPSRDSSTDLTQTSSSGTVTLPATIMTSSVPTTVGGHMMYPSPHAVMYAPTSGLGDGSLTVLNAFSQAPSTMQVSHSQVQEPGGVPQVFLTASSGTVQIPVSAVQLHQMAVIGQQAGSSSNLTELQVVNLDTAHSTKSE
# Assay: co-IP; more than 1 mg protein of AGS and SGC-7901 cells, pre-cleared, 5 ug primary antibody overnight, protein A-Sepharose beads, washed 5 times with 1% NP40 lysis buffer, western blot; cells also treated with SRF or YY1 siRNA (binding weakened)
row,binding,Substance
1,binds,ING5 (from UniProt Q8WYH8 1-240)
2,binds,YY1 (from UniProt P25490 1-414)
3,binds,p53 (from UniProt P04637 1-393)
